Consider two molecules from article PMC11203437, “Subtle Structural Differences Affect the Inhibitory Potency of RGD-Containing Cyclic Peptide Inhibitors Targeting SPSB Proteins” (International Journal of Molecular Sciences, 2024).

The experiment has as its target T1, GST-tagged SPRY domain of human SPSB2 (human) (UniProt Q99619).
T1 sequence: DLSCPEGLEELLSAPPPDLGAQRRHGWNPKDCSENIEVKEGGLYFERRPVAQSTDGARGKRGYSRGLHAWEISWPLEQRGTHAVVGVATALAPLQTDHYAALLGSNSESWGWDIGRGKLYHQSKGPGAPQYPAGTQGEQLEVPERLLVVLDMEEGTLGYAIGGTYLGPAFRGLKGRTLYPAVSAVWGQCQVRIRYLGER
The experiment is described as follows: pull-down; competition: 1 μM or 10 μM cyclic peptide added to the RAW 264.7 lysate with 2 μg/mL GST-tagged SPRY domain for 2 h; iNOS recovered on glutathione sepharose 4B read by Western blot; both purified.

No constants are given. Whether binding was seen depends on the method and setting. Some results given as binding are weak or reduced against the parent protein; the word gives no strength. Tags and fused reporters may be left off the sequences shown.

For the molecule RGDINNNVE (head-to-tail amide-cyclized) [cR9, cyclo(…)], the binding result is “binds”.
As for RGDINNN (head-to-tail amide-cyclized) [cR7, cyclo(RGDINNN)], the binding result is recorded as “binds”.
